Assay results published in US20130345392A1 (Pfizer Inc, priority 2011, published 2013).

Assay: Fmoc solid-phase peptide synthesis; Rink amide MBHA; TBTU
Details: whole synthesis

CTCFTYKDKECVYYCHLDIIWINTPEQTVPYGLSNYRESLRGKR-NH2
final LC-MS purity: approximately 95% purity
